# Test results reported in PubChem BioAssay AID2685 (National Center for Advancing Translational Sciences (NCATS), 2010).
# The other results are listed elsewhere or left out. The main result of the screen is listed elsewhere. These columns were measured beside it and carry no call. The list favours compounds with an active or inconclusive main result. The note in brackets gives the kind of curve behind each potency; many fits are weak.
# Assay: qHTS Assay for Lipid Storage Modulators in Drosophila S3 Cells;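 as to cell number change: cells counted by Cell Tracker Red CMTPX staining in the red channel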
# Settings: BODIPY lipid droplet fluorescence, 18-24 h; for cell number change: measured here: cell count max response, cells fed with added oleic acid
# Method in brief: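 Drosophila S3 cells loaded with oleic acid (400 uM, as added) and compounds at several concentrations; lipid droplets imaged by 488-nm laser-scanning cytometry, 500–530 nm intensity and object ratio to cell channel. Percent activity normalized to 20 uM Triacsin C.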
# [1] = measured here: lipid fluorescence (Fed channel) AC50, cells fed with added oleic acid
# [2] = measured here: cell number channel AC50, cells fed with added oleic acid
Compound,cell number change [%],AC50 [1],AC50 [2]
COc1ccc(C(=O)Nc2cccc(NC(C)=O)c2)cc1OC,-0.767,"7.31 µM [rising, partial curve]",
CCOc1ccccc1NC(=O)C1CC2CCCC(C1)C2=O (stereo not drawn),9.3,"25.9 µM [falling, single point]",
O=S(=O)(c1cccs1)N1CCN(CC(O)COC2CCCc3ccccc32)CC1 (stereo not drawn),-9.35,"2.06 µM [falling, partial curve]",
CCOc1cc(C2C(C(=O)OC)=C(C)N=C3SC(C)C(=O)N32)ccc1OC(C)=O (stereo not drawn),,"29.1 µM [rising, single point]",
Cc1csc(NC(=O)CSc2nnc(-c3ccncc3)o2)n1,18.1,"11.6 µM [rising, partial curve]",
CN(c1ccc(C(=O)N2CCCCC2)cc1)S(C)(=O)=O,-18.8,,
Cc1ccc(C)c(NC(=O)CN(C)C(=O)c2ccc(S(=O)(=O)N3CCCCCC3)cc2)c1,-0.648,"0.00517 µM [falling, full curve, poor fit]",
Cc1ccc(C)c(OCCn2c(=O)c3c(ncn3C3CCCC3)n(Cc3ccccc3)c2=O)c1,17.7,,
N#CC1(NC(=O)COC(=O)Cc2n[nH]c(=O)c3ccccc23)CCCCC1,12.5,,
COc1cccc(C(=O)N2CCN(C(=O)COc3ccc4ccccc4c3)CC2)c1,17.9,"0.116 µM [falling, single point]",
O=C1CC2(CCCCC2)Oc2ccc(OCC(=O)N3CCOCC3)cc21,-13.9,"18.4 µM [falling, single point]",
COc1cccc(N2CCN(c3cnc4ccccc4n3)CC2)c1,36.9,"0.366 µM [rising, partial curve, poor fit]","0.082 µM [rising, full curve]"
CC1=C(C(=O)OC(C)(C)C)C(c2ccco2)C(C#N)=C(N)O1 (stereo not drawn),-86.1,"1.84 µM [falling, partial curve]","20.6 µM [falling, partial curve, poor fit]"
C=C(C)COc1ccc(-c2ncnc(C(F)(F)F)c2-c2ccccc2)c(O)c1,129,"29.1 µM [rising, single point]",
Cc1cccc(C(=O)NCC(=O)NNC(=O)c2ccccc2O)c1,-6.39,"0.731 µM [falling, full curve, poor fit]",
CCC(C)(C)c1ccc(OCCCC[n+]2cccc(C)c2)c(C(C)(C)CC)c1,-79.3,,"13 µM [falling, partial curve]"
Cc1ccc(N(CC(=O)O)S(C)(=O)=O)cc1Cl,11.2,"0.0366 µM [rising, single point]",
COc1ccc(S(=O)(=O)N2CCC(O)(c3ccc(Cl)cc3)CC2)cc1,-8.79,"20.6 µM [rising, single point]",
COc1ccccc1-c1noc(-c2ccncc2)n1,-0.291,"18.4 µM [rising, single point]",
COc1cc(C(=O)Nc2ccccc2N2CCCCC2)cc(OC)c1OC,11.1,"3.26 µM [rising, partial curve]",

# Random excerpt: 2 compounds from above, in no set order.
Compound,cell number change [%],AC50 [1],AC50 [2]
Cc1cccc(C(=O)NCC(=O)NNC(=O)c2ccccc2O)c1,-6.39,"0.731 µM [falling, full curve, poor fit]",
COc1ccc(C(=O)Nc2cccc(NC(C)=O)c2)cc1OC,-0.767,"7.31 µM [rising, partial curve]",

# The list continues.

Compound,cell number change [%],AC50 [1],AC50 [2]
Cc1nc2ccc3nc(NC(=O)C4COc5ccccc5O4)sc3c2s1 (stereo not drawn),-48,,"14.6 µM [falling, single point]"
COc1cc(/C=N/NC(=O)c2cc(-c3cccn3C)n[nH]2)cc(OC)c1OC,6.9,"13 µM [rising, partial curve]",
CCC(=O)C1CCCN(C(=O)CCc2nnc(-c3ccc(C(C)=O)s3)o2)C1 (stereo not drawn),9.17,"32.6 µM [falling, single point]",
COC(=O)c1c(C)[nH]c(O)c1C=Nc1ccc(Oc2ccccc2)cc1,17.8,"6.51 µM [falling, single point]",
CCCOC(=O)COC(=O)c1ccccc1NC(=O)c1ccccc1,-6.51,"2.59 µM [rising, full curve, poor fit]",
Cc1cc(NS(=O)(=O)c2ccc(NC(=O)C(C)Oc3ccc(C(C)C)cc3)cc2)no1 (stereo not drawn),6.09,,
O=S(=O)(Cc1ccc(Cl)cc1)NCC1CCCO1 (stereo not drawn),0.334,"23.1 µM [falling, partial curve]",
CC1(C)OC(=O)N(c2cccnc2)C1(C)O (stereo not drawn),-91.3,,"32.6 µM [falling, single point]"
CCOc1ccc(-n2nnnc2SCC(=O)Nc2ccc(NC(C)=O)cc2)cc1,-18.3,"0.92 µM [falling, full curve, poor fit]",
Cc1ccc2cc(CCNC(=O)c3ccc4c(c3)OCO4)c(=O)[nH]c2c1,57.6,"1.64 µM [rising, partial curve]","5.17 µM [rising, partial curve, poor fit]"
Cc1csc(=O)n1CC(=O)OCC(=O)c1c(N)n(C)c(=O)n(C)c1=O,-82.5,,
Nc1ccc2c(c1)C(=O)N(CCCC(=O)O)C2=O,-12.6,"20.6 µM [falling, single point]",
Clc1ccc(SCCCCn2cncn2)cc1,16.4,,
COC(=O)CNC(=O)CN1C(=O)N(c2ccccc2)C(N(O)C(=O)Nc2ccccc2)C1(C)C (stereo not drawn),126,,"29.1 µM [rising, partial curve, poor fit]"
CCOc1ccc(C(c2c(NC(=O)c3ccccc3)sc(C)c2C)N2CCN(C)CC2)cc1 (stereo not drawn),-53,"18.4 µM [falling, single point]","20.6 µM [falling, single point]"
Cc1cc(C)n2nc(C(=O)OCC(=O)N(C)Cc3ccccc3)nc2n1,0.803,,
COc1ccc(CC(=O)NNC(=O)c2ccco2)cc1,15.8,,
Cc1ccc(S(=O)(=O)N2C(=O)[C@@H]3Cc4ccccc4CN3C2=O)cc1,15.3,,
Cc1cccc(NC(=O)CSc2nccn2Cc2ccco2)c1,2.09,"0.58 µM [falling, single point]",
C=CCn1c(SCC(=O)Nc2ccc(OC)cc2)nc2ccccc2c1=O,109,,"29.1 µM [rising, single point]"

Compound,cell number change [%],AC50 [1],AC50 [2]
COc1ccc2[nH]c3c(=O)n(N)c(=O)[nH]c3c2c1,60.6,,"0.0206 µM [rising, full curve]"
COc1ccc(CN(C)C(=O)CNC(=O)c2ccc(C)cc2)cc1,-14.5,,
CS(=O)(=O)c1ccc(Cl)c(NC(=O)c2cc(=O)[nH]c3ccc(S(=O)(=O)N4CCOCC4)cc23)c1,-24,"8.2 µM [falling, partial curve, poor fit]",
O=C(NCCNC(=O)c1ccccn1)c1ccc(-c2ccccc2)cc1,-32.1,,"13 µM [falling, single point]"
Cc1c(C)c2ccc(OC(C)C(=O)N3CC[C@@]4(O)CCCC[C@H]4C3)cc2oc1=O (stereo partly drawn),15,,"6.51 µM [rising, single point]"
O=C(CN1CCN(S(=O)(=O)c2ccc(F)cc2)CC1)Nc1cccc(C(F)(F)F)c1,-3.74,"16.4 µM [falling, single point]","5.8 µM [rising, single point]"
CN(C)S(=O)(=O)c1ccc2nnn(OCC(=O)NC3CCS(=O)(=O)C3)c2c1 (stereo not drawn),21.7,"0.116 µM [rising, full curve, poor fit]",
Clc1ccc(/C=C/c2ncc[nH]2)c(Cl)c1,19.6,"13 µM [rising, single point]",
CCOc1cccc(Nc2cc3n(c(=O)n2)CCc2cc(OC)c(OC)cc2-3)c1,-30.4,"23.1 µM [falling, single point]","14.6 µM [falling, partial curve, poor fit]"
CN(C(=O)COC(=O)c1ccc2c(c1)OCO2)c1c(N)n(Cc2ccccc2)c(=O)[nH]c1=O,41.3,,"29.1 µM [rising, single point]"
O=C1CC(Nc2ccc(N3CCOCC3)cc2)C(=O)N1c1ccccc1 (stereo not drawn),15.6,"16.4 µM [rising, partial curve, poor fit]",
c1ccc(Cn2c(Sc3nnnn3-c3ccccc3)nnc2-c2ccccc2)cc1,182,"6.51 µM [rising, partial curve]","9.2 µM [rising, partial curve]"
Cc1nnc(NC(=O)CSc2nnc(Cc3cccn3C)n2-c2cccc(C)c2C)s1,6.98,"0.291 µM [rising, partial curve, poor fit]","0.326 µM [rising, full curve, poor fit]"
O=C(Nc1ccccc1Cl)C1CCCN(c2ncnc3c2nc2n3CCCCC2)C1 (stereo not drawn),-3.44,,
CC(C)=C1SC(N2CCN(c3cccc(C)c3)CC2)=NC1=O,33.1,"0.461 µM [falling, full curve, poor fit]","16.4 µM [rising, single point]"
O=S(Cc1ccc(Br)cc1)Cc1nnc(SCc2ccc(Cl)cc2)n1-c1ccccc1 (stereo not drawn),-42.9,"0.58 µM [falling, partial curve]","5.8 µM [falling, partial curve]"
Cc1nc2cc(Cl)ccc2n1CCO,-3.11,"4.11 µM [falling, single point]",
CCOC(=O)c1c(C)nc2ccccn12,-19.2,"0.092 µM [falling, full curve]",
Cc1c(Cl)cccc1NC(=S)N(CCCN1CCOCC1)Cc1ccco1,,"0.103 µM [rising, partial curve, poor fit]","0.092 µM [rising, full curve, poor fit]"
Cc1ccc(S(=O)(=O)N2CCN(C(=O)c3ccccc3Cc3ccccc3)CC2)c(C)c1,-5.45,"2.91 µM [rising, single point]",
